Strings that start with PEPTIDE1 are HELM notation: dots part the residues, brackets hold end groups and non-standard residues.
Test: general procedure: Fmoc solid-phase peptide synthesis; 2-Chlorotrityl chloride resin; DIC/HOBt (chain assembly); HATU/DIEA (cyclisation in solution)
Settings: cyclisation step

Work on “PEPTIDE1{L.H.N.L.[AcLys-eps].T.E.R.M.A}$PEPTIDE1,PEPTIDE1,1:R1-10:R2$$$V2.0” yielded a cyclisation yield of 3%.
